Sequences of proteins named here, by UniProt entry; tags and fusion partners are left off. Residues count along the entry.
UniProt P05106, residues 27-788: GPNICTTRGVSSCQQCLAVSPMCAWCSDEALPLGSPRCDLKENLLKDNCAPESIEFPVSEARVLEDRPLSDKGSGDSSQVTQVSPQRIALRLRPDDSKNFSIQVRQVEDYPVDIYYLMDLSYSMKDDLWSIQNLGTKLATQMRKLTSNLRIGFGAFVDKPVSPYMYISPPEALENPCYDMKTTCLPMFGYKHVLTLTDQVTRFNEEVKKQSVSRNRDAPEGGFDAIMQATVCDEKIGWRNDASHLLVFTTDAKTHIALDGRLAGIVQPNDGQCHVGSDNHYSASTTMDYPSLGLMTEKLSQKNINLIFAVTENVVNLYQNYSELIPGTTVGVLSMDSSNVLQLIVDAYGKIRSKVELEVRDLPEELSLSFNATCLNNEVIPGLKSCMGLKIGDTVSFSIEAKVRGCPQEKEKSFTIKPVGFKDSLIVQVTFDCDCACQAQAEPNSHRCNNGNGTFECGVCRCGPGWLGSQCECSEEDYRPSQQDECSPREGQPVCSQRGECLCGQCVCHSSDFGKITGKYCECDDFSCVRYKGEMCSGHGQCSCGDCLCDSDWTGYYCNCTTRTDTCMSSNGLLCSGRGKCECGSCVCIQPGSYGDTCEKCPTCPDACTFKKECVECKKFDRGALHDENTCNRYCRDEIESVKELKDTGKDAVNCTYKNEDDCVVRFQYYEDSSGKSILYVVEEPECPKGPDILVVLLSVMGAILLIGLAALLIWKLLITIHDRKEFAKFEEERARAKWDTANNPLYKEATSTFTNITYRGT

In PMC11065694:

Biological target: CD61-flag (integrin β3) (human) (UniProt P05106)
Test: affinity purification with mass spectrometry; CD61-flag Co-IP lysates of CD103+CD61+ T cells compared with CD103+CD61- T cells; S-trap digestion; LC-MS/MS in DIA mode; label-free quantification

Binder	binding
CD103 (integrin αE) (protein, UniProt P38570 19-1179) FNVDVARPWLTPKGGAPFVLSSLLHQDPSTNQTWLLVTSPRTKRTPGPLHRCSLVQDEILCHPVEHVPIPKGRHRGVTVVRSHHGVLICIQVLVRRPHSLSSELTGTCSLLGPDLRPQAQANFFDLENLLDPDARVDTGDCYSNKEGGGEDDVNTARQRRALEKEEEEDKEEEEDEEEEEAGTEIAIILDGSGSIDPPDFQRAKDFISNMMRNFYEKCFECNFALVQYGGVIQTEFDLRDSQDVMASLARVQNITQVGSVTKTASAMQHVLDSIFTSSHGSRRKASKVMVVLTDGGIFEDPLNLTTVINSPKMQGVERFAIGVGEEFKSARTARELNLIASDPDETHAFKVTNYMALDGLLSKLRYNIISMEGTVGDALHYQLAQIGFSAQILDERQVLLGAVGAFDWSGGALLYDTRSRRGRFLNQTAAAAADAEAAQYSYLGYAVAVLHKTCSLSYIAGAPRYKHHGAVFELQKEGREASFLPVLEGEQMGSYFGSELCPVDIDMDGSTDFLLVAAPFYHVHGEEGRVYVYRLSEQDGSFSLARILSGHPGFTNARFGFAMAAMGDLSQDKLTDVAIGAPLEGFGADDGASFGSVYIYNGHWDGLSASPSQRIRASTVAPGLQYFGMSMAGGFDISGDGLADITVGTLGQAVVFRSRPVVRLKVSMAFTPSALPIGFNGVVNVRLCFEISSVTTASESGLREALLNFTLDVDVGKQRRRLQCSDVRSCLGCLREWSSGSQLCEDLLLMPTEGELCEEDCFSNASVKVSYQLQTPEGQTDHPQPILDRYTEPFAIFQLPYEKACKNKLFCVAELQLATTVSQQELVVGLTKELTLNINLTNSGEDSYMTSMALNYPRNLQLKRMQKPPSPNIQCDDPQPVASVLIMNCRIGHPVLKRSSAHVSVVWQLEENAFPNRTADITVTVTNSNERRSLANETHTLQFRHGFVAVLSKPSIMYVNTGQGLSHHKEFLFHVHGENLFGAEYQLQICVPTKLRGLQVVAVKKLTRTQASTVCTWSQERACAYSSVQHVEEWHSVSCVIASDKENVTVAAEISWDHSEELLKDVTELQILGEISFNKSLYEGLNAENHRTKITVVFLKDEKYHSLPIIIKGSVGGLLVLIVILVILFKCGFFKRKYQQLNLESIRKAQLKSENLLEEEN	binds
integrin β7 (protein, UniProt P26010 20-798) ELDAKIPSTGDATEWRNPHLSMLGSCQPAPSCQKCILSHPSCAWCKQLNFTASGEAEARRCARREELLARGCPLEELEEPRGQQEVLQDQPLSQGARGEGATQLAPQRVRVTLRPGEPQQLQVRFLRAEGYPVDLYYLMDLSYSMKDDLERVRQLGHALLVRLQEVTHSVRIGFGSFVDKTVLPFVSTVPSKLRHPCPTRLERCQSPFSFHHVLSLTGDAQAFEREVGRQSVSGNLDSPEGGFDAILQAALCQEQIGWRNVSRLLVFTSDDTFHTAGDGKLGGIFMPSDGHCHLDSNGLYSRSTEFDYPSVGQVAQALSAANIQPIFAVTSAALPVYQELSKLIPKSAVGELSEDSSNVVQLIMDAYNSLSSTVTLEHSSLPPGVHISYESQCEGPEKREGKAEDRGQCNHVRINQTVTFWVSLQATHCLPEPHLLRLRALGFSEELIVELHTLCDCNCSDTQPQAPHCSDGQGHLQCGVCSCAPGRLGRLCECSVAELSSPDLESGCRAPNGTGPLCSGKGHCQCGRCSCSGQSSGHLCECDDASCERHEGILCGGFGRCQCGVCHCHANRTGRACECSGDMDSCISPEGGLCSGHGRCKCNRCQCLDGYYGALCDQCPGCKTPCERHRDCAECGAFRTGPLATNCSTACAHTNVTLALAPILDDGWCKERTLDNQLFFFLVEDDARGTVVLRVRPQEKGADHTQAIVLGCVGGIVAVGLGLVLAYRLSVEIYDRREYSRFEKEQQQLNWKQDSNPLYKSAITTTINPRFQEADSPTL	no binding

These are yes or no findings as the source states them, for the method shown. In cells and extracts the contact can be indirect. Here binding means that the protein was enriched with, or labelled near, the bait; the list need not be complete. A no says only that the protein was not detected with the bait.
